From ChEMBL document CHEMBL2086256, “Synthesis and biological evaluation of selective and potent cyclin-dependent kinase inhibitors” (Eur J Med Chem, 2012)

Test system: SH-SY5Y
Assay: Cytotoxicity against human SH-SY5Y cells assessed as cell viability after 48 hrs by MTS reduction assay
Format: functional, cell-based
Outline: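 SH-SY5Y cells grown in DMEM with 2 mM L-glutamine, antibiotics and 10% FCS; exposed 48 h to a range of compound concentrations; viability by MTS reduction. IC50 is the mean of three experiments.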

## CC[C@H](CO)Nc1nc(NCc2ccccc2)c2ncn(C(C)C)c2n1 [SELICICLIB]
  IC50: 17 µM
